PubChem BioAssay AID504834 (National Center for Advancing Translational Sciences (NCATS), 2011)
In all, about 320,000 compounds went through this assay and about 22,000 (6.9%) were called active. Inconclusive results, whose numbers are uncertain, are shown with a selection of clear calls. Calls come from the whole dose curve; as a rule, active = well fitted inhibition curve with a large enough effect; inconclusive = small, poorly fitted or top-dose-only effect, or another doubt; inactive = no such curve, though single readings can be large or run the other way. Potencies beside an inconclusive call are fits to weak or partial responses and may not hold up.

Test: Primary qHTS for delayed death inhibitors of the malarial parasite plastid, 96 hour incubation
Conditions: P. falciparum luciferase reporter growth; series mostly up to 28.7 µM
In short: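 Erythrocytes infected with luciferase-expressing P. falciparum were dispensed at 2% hematocrit and 0.05% parasitemia (final), then incubated with compounds 96 hours at 37 C in 5% CO2. Luminescence after detection reagent addition reported growth.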
Potency is the fitted concentration of half-maximal effect.

| Structure (SMILES) | Potency |
| --- | --- |
| COc1ccc(C(=O)C2CN(C)CC2c2ccc(Cl)cc2)cc1 (configuration not stated) | inactive |
| CCOC(=O)CC(=O)CSc1nc2c(sc(=S)n2-c2ccc(C)c(C)c2)c(=O)[nH]1 | inconclusive: 9.28 µM [inhibitor, single point] |
| O=C(CSc1nc2ccc(Cl)cc2[nH]1)c1c[nH]c2ccccc12 | inactive |
| COc1ccccc1NC(=O)N(Cc1ccccc1)c1ccccn1 | inconclusive: 11.7 µM [inhibitor, single point] |
| O=C(NCCN1CCOCC1)c1cc([N+](=O)[O-])ccc1Cl | inconclusive: 18.5 µM [inhibitor, single point] |
| COc1cccc(C2C(C(=O)c3cccs3)=C(O)C(=O)N2CCN2CCOCC2)c1OC (configuration not stated) | inconclusive: 18.5 µM [inhibitor, single point] |
| CCCCCCCCC(=O)N1CCN(c2cc3c(cc2F)c(=O)c(C(=O)O)cn3CC)CC1 | inconclusive: 7.38 µM [inhibitor, partial curve, poor fit] |
| COc1ccc(NC(=S)NC(=O)/C=C/c2ccco2)cc1 | inactive |
| COc1ccccc1CNC(=O)[C@@H](NC(=O)C1CCN(C(=O)[C@@H]2CCCN2)CC1)C(C)C | inactive |
| C/C(=C/Cc1c(O)cc2oc(C)cc(=O)c2c1O)COC1OC(CO)C(O)C(O)C1O (configuration not stated) | inactive |
| COc1ccc(CNC(=O)CN(Cc2ccc(OC)cc2)C(=O)CCC(=O)Nc2ccccn2)cc1 | inactive |
| O=C(CNC(c1ccccc1)c1ccccc1)Nc1ccccc1-c1ccccc1 | active: 13.1 µM |
| CCOc1ccc2[nH]cc(C(=O)NCc3ccccc3)c(=O)c2c1 | inconclusive: 0.0008 µM [inhibitor] |
| CCCCNC(=O)c1cn(CC)c2cc(N3CCN(C(=O)c4ccco4)CC3)c(F)cc2c1=O | inconclusive: 0.828 µM [inhibitor, partial curve] |
| O=C1COc2ccc(C(=O)CSc3nnc(Cc4cccs4)n3-c3ccc(Cl)cc3)cc2N1 | inconclusive: 1.17 µM [inhibitor, partial curve, poor fit] |
| CCn1c(/N=C/c2ccccc2O)nc2ccccc21 | inconclusive: 10.4 µM [inhibitor, single point] |
| COc1ccc(C(=O)/C(=C\c2ccco2)N2C=CC=CC2=C(C#N)C#N)cc1 | inconclusive: 14.7 µM [inhibitor, partial curve, poor fit] |
| CC1CCCN(C(=O)c2ccc(COc3ccccc3Br)cc2)C1 (configuration not stated) | inconclusive: 18.5 µM [inhibitor, single point] |
| Cc1cc(C)n2nc(-c3ccccc3)c(-c3ccccc3)c2n1 | inconclusive: 11.7 µM [inhibitor, partial curve, poor fit] |
| Cc1c(C(C)(C)C)c(C=S)n2ccccc12 | active: 10.4 µM |
| COc1ccccc1CNC(=O)[C@@H]1CCCN1S(=O)(=O)c1ccc(C)cc1 | inconclusive: 11.7 µM [inhibitor, single point] |

Sorted by molecular weight (ascending): three of the compounds above

| Structure (SMILES) | Potency |
| --- | --- |
| CCn1c(/N=C/c2ccccc2O)nc2ccccc21 | inconclusive: 10.4 µM [inhibitor, single point] |
| COc1ccccc1CNC(=O)[C@@H]1CCCN1S(=O)(=O)c1ccc(C)cc1 | inconclusive: 11.7 µM [inhibitor, single point] |
| COc1ccccc1CNC(=O)[C@@H](NC(=O)C1CCN(C(=O)[C@@H]2CCCN2)CC1)C(C)C | inactive |

Remaining list, next part:

| Structure (SMILES) | Potency |
| --- | --- |
| CCOC(=O)N1CCN(C(=S)NC(=O)C23CC4CC(CC(C4)C2)C3)CC1 | inconclusive: 3.7 µM [inhibitor, partial curve, poor fit] |
| CC(C)=CC(=O)NCc1c(Cl)cccc1-n1cccc1 | inconclusive: 18.5 µM [inhibitor, single point] |
| COCc1cc(Sc2c(Cl)cccc2Cl)nc(-c2ccccc2)n1 | inconclusive: 2.94 µM [inhibitor, partial curve, poor fit] |
| Cc1ccc(-c2noc(CN(C(=O)c3cccc(Br)c3)C(C)C)n2)cc1 | inconclusive: 11.7 µM [inhibitor, single point] |
| Cc1ccc(C)c(SCC(=O)NNC(=O)c2csc(N3CCOCC3)n2)c1 | inactive |
| COc1ccc(O)c(CN2CCCC(N3CCc4ccccc4C3)C2)c1 (configuration not stated) | inconclusive: 14.7 µM [inhibitor, partial curve, poor fit] |
| Cc1cc(C)n(-c2nc3ccccc3c(=O)n2OCc2ccc(Cl)cc2)n1 | inconclusive: 18.5 µM [inhibitor, single point] |
| Cc1cccc(C)c1NC(=O)CN(C)C(=O)c1cc([N+](=O)[O-])ccc1N1CCOCC1 | inconclusive: 18.5 µM [inhibitor, single point] |
| COc1ccc(OCC(=O)N2c3ccccc3CCc3ccccc32)cc1 | inactive |
| Cc1ccc(S(=O)(=O)Cn2nnnc2C(C(C)C)N2CCC(O)CC2)cc1 (configuration not stated) | inactive |
| CC(=O)NC(Cc1ccccc1F)C(=O)NC1CCN(C(=O)c2cnccn2)CC1 (configuration not stated) | inconclusive: 13.1 µM [inhibitor, partial curve, poor fit] |
| O=C(COc1cccc(-n2cnnn2)c1)Nc1ccc([N+](=O)[O-])cc1 | inconclusive: 9.28 µM [inhibitor, partial curve] |
| Cc1c(Cl)cccc1NC(=O)CN(C1CCCCC1)S(C)(=O)=O | inconclusive: 13.1 µM [inhibitor, single point] |
| CN1CCN(c2ccc(NC(=O)C(C)(c3ccccc3)c3ccccc3)cc2)CC1 | inconclusive: 14.7 µM [inhibitor, single point] |
| O=C(CSc1nc(-c2ccc(F)cc2)cs1)N1CCN(C(=O)c2ccco2)CC1 | inconclusive: 18.5 µM [inhibitor, single point] |
| CCOC(=O)C1CCN(C(=O)Cn2nc(C)n3cccc3c2=O)CC1 | inactive |
| N#CCCn1nc(-c2ccc([N+](=O)[O-])cc2)cc1Nc1ccccc1NC(=O)C(F)(F)F | active: 10.4 µM |
| Cn1cccc1Cc1nnc(SCC(=O)N2CCOCC2)n1-c1ccc(F)cc1 | inconclusive: 11.7 µM [inhibitor, single point] |
| O=C1CC[C@H](OCc2ccccc2)CCN1[C@H](CSc1ccccc1)Cc1ccccc1 | inconclusive: 8.28 µM [inhibitor, partial curve, poor fit] |
| CCOC(=O)c1c(NC(=S)Nc2ccc(F)cc2)sc2c1CCC2 | inconclusive: 18.5 µM [inhibitor, single point] |
| CCOC(=S)NC(=O)c1sc2ccccc2c1Cl | inconclusive: 4.15 µM [inhibitor, single point] |
